No constants are given. Whether binding was seen depends on the method and setting. In cells and extracts the contact can be indirect. Binding can be weak; no strength is given.
Molecular target: RomR fused to a hexahistidine motif (His6) at its C-terminus (Myxococcus xanthus)
Assay: pull-down; co-purification of M. xanthus soluble extracts on nickel beads by RomR-His6 (otherwise WT, mglA and mglB mutant backgrounds); lysis buffer NaH2PO4 50 mM, NaCl 100 mM, MgCl2 5 mM, 10 uM GDP, 20 mM imidazole pH 8.0; 4°C, 2 hours; three washes; Western blot of the eluate; control strains with un-tagged RomR

binding | Binder
binds | MglB (protein, UniProt Q1DB03 1-159) MGTQLVMYEEEFTKINAVCDRLTKDANAKVVFLVDKNGQLISSAGQTQNIDTTSLASLTAGNVAAMGGLAKLIGENEFPNQFHEGAKDSLYMTIVGSRVVLVVIFDNRTSLGLVRLRIKKASDELTKIFESLVKKTDSPGAGSPFAEISDDDIDNLFSE
binds | MglA (protein, UniProt Q1DB04 1-195) MSFINYSSREINCKIVYYGPGLCGKTTNLQYIYNKTAAETKGKLISLSTETDRTLFFDFLPLSLGEIRGFKTRFHLYTVPGQVFYDASRKLILKGVDGVVFVADSQIERMEANMESLENLRINLAEQGYDLNKIPYVIQYNKRDLPNAVTVEEMRKALNHRNIPEYQAVAPTGVGVFDTLKAVAKLVLTELKKGG
